# Some entries share one result that the patent states for a list of compounds.
# Protein sequences, listed by entry. Tags and fused reporters are not part of them. Residues count along the entry.
# UniProt P05067, 672-713 limits assumed: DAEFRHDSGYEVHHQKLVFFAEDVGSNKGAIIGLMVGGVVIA
# Target: Aβ oligomers (oAβ) (Homo sapiens, UniProt P05067)
# Assay: Emission scan (fluorescence spectral scanning) of compound mixed with Aβ oligomers
# Type: binding
# Set-up: To prepare oligomeric and fibrillar Aβ, Aβ peptides were incubated according to a previously known Aβ aggregation protocol
# Settings: oAβ compared with mAβ and fAβ
smiles,measurement,value
"Cc1cc(C#N)c2c3ccc(F)cc3c(-c3ccc(F)cc3)cn12 [AMD-D-255, 8-fluoro-6-(4-fluorophenyl)-3-methylpyrrolo[2,1-a]isoquinoline-1-carbonitrile]",increase in emission intensity when bound to Aβ oligomers,specific increase in fluorescence emission intensity

# From patent publication EP4755889A1, “COMPOUND FOR DETECTING AMYLOID-BETA OLIGOMER AND METHOD FOR DIAGNOSING DEGENERATIVE BRAIN DISEASE USING SAME” (Amyloid Solution Inc., priority 2024, dated 2025)
